# Percent effect of library compounds

From ChEMBL document CHEMBL3988442, “University of Dundee, Small-Polar-MMV Screening Library” (2021).

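Assay of Toxoplasma gondii numbers, read through their beta-galactosidase reporter with a colour substrate. Concentration: 50 µM. Higher reads as fewer parasites (inferred from which compounds were picked for retests). Of about 18,000 compounds tested this way, about 170 (0.94%) reached 50% or more in at least one test.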

Each number is a percent effect as filed. The controls that fix the scale are not given in the record; negative values are as filed. Compounds were drawn at random from those tested, without regard to their results.

compound: CCC[C@H](N)C(=O)NCCc1nc(COC)no1
Percent Effect: -3.847%

compound: c1ccc(COCc2nc(C3CCCCN3)no2)cc1 (stereo not given)
Percent Effect: 0.8656%

compound: CNc1nc(C(=O)N[C@@H]2CC[C@@H](N)C2)cs1
Percent Effect: 18.65%

compound: CCO[C@H]1CN(Cc2ccccc2C#N)C[C@@H]1O
Percent Effect: 9.54%

compound: c1cc(COC2CCNC2)ccn1 (stereo not given)
Percent Effect: -3.539%

compound: CCN1CCC(O)CC1
Percent Effect: -12.28%

compound: CCCc1n[nH]cc1C(=O)N1CC[C@](C)(O)C(C)(C)C1
Percent Effect: -15.66%

compound: CCCc1nccn1CC(C)CS(C)(=O)=O (stereo not given)
Percent Effect: -4.213%

compound: Cc1cc(C)c(C#N)c(N2CCOCC(CO)C2)n1 (stereo not given)
Percent Effect: 1.851%

compound: CCOc1ccc(Cn2nc(COC)oc2=O)nc1
Percent Effect: 3.019%

compound: COCc1ccccc1C(=O)NCCN1CCCC1
Percent Effect: 3.972%

compound: O=C(CSc1ncn[nH]1)Nc1ncc(Br)s1
Percent Effect: 6.895%

compound: O=c1[nH]c(CN2CCOCC2)nc2ccsc12
Percent Effect: -6.282%

compound: Cc1csc(NC(=O)CNC(=O)c2cccs2)n1
Percent Effect: -5.889%

compound: NS(=O)(=O)NC(c1cc(F)ccc1F)C1CC1 (stereo not given)
Percent Effect: -10.86%

compound: CC(C)(C)C(CCO)NC(=O)c1ccsc1 (stereo not given)
Percent Effect: -4.488%

compound: COCCCN1C(=O)[C@H]2CNC[C@H]2C1=O
Percent Effect: -3.949%

compound: CSCc1nnc(SCC(=O)NC2(C#N)CCCC2)o1
Percent Effect: 9.959%

compound: COCCOc1cc(C)ccc1CN
Percent Effect: 4.821%

compound: CCCN1CCN(C(=O)CN(C)C)CC1
Percent Effect: 9.266%

compound: CO[C@H]1C[C@@H](O)C12CCN(c1cc(N)ncn1)CC2
Percent Effect: 2.386%

compound: COC(=O)CN(c1ccc(C#N)cc1)S(C)(=O)=O
Percent Effect: -1.017%

compound: C[C@@H]1CN(CCCS(=O)(=O)N(C)C)C[C@@]1(O)C1CCC1
Percent Effect: 1.426%

compound: COc1cccnc1C(F)(F)F
Percent Effect: -1.091%

compound: c1ccc2ncc(N3CCNCC3)cc2c1
Percent Effect: -2.148%

compound: O=C(CCN1C(=O)CCC1=O)OCCc1cccs1
Percent Effect: -8.658%

compound: CC1CCCN(c2nc(C(=O)N3CCOCC3)cs2)C1 (stereo not given)
Percent Effect: -3.165%

compound: Cc1nc(CN2C(=O)CC3(CCSC3)C2=O)cs1 (stereo not given)
Percent Effect: -4.06%

compound: O=C(NCC1CCCNC1)c1ccccc1 (stereo not given)
Percent Effect: -1.232%

compound: Cc1ccc(C2CCCN2CCS(C)(=O)=O)s1 (stereo not given)
Percent Effect: -11.86%

compound: CCOc1cc(C(=O)NC2=NCCS2)ccc1OC
Percent Effect: -18.69%

compound: CNC(=O)C1CCCCN1Cc1nccn1CCOC (stereo not given)
Percent Effect: -5.191%

compound: CC1(O)COc2ccccc2OC1
Percent Effect: 33.46%

compound: N#CC(CO)Cc1ccco1 (stereo not given)
Percent Effect: -1.66%

compound: CC1(CNC(=O)NCC2(C)COC2)CCC1
Percent Effect: -14.25%

compound: COC(=O)N(C)CC(=O)Nc1ccc(C)cc1
Percent Effect: -16.71%

compound: CC(C)CN1C(=O)C(N)c2ccccc21 (stereo not given)
Percent Effect: 11.47%

compound: Cn1nccc1CNC(=O)c1cccc(C#N)c1
Percent Effect: -13.55%

compound: CN1CCC(NCC(=O)NC(C)(C)C)CC1
Percent Effect: 23.48%

compound: CCC(=O)NCC(C)(CC)NC(=O)CC (stereo not given)
Percent Effect: -5.475%

compound: Clc1ccc(-c2noc(CN3CCCNCC3)n2)cc1
Percent Effect: 22.4%

compound: NC1CCN(C(=O)c2cn[nH]c2)CC1
Percent Effect: 0.04366%

compound: Cc1cc(C(=O)NCC2(O)CCNC2)cc(=O)[nH]1 (stereo not given)
Percent Effect: -4.163%

The first 5 entries again:

compound	Percent Effect
CCC[C@H](N)C(=O)NCCc1nc(COC)no1	-3.847%
c1ccc(COCc2nc(C3CCCCN3)no2)cc1 (stereo not given)	0.8656%
CNc1nc(C(=O)N[C@@H]2CC[C@@H](N)C2)cs1	18.65%
CCO[C@H]1CN(Cc2ccccc2C#N)C[C@@H]1O	9.54%
c1cc(COC2CCNC2)ccn1 (stereo not given)	-3.539%